The text below walks through data of the supplement of paper PMC12595434, “Development of retinoid nuclear receptor pathway antagonists through targeting aldehyde dehydrogenase 1A3” (iScience, 2025).

Sequences of proteins named here, by UniProt entry; tags and fusion partners are left off.
UniProt P54709, whole entry: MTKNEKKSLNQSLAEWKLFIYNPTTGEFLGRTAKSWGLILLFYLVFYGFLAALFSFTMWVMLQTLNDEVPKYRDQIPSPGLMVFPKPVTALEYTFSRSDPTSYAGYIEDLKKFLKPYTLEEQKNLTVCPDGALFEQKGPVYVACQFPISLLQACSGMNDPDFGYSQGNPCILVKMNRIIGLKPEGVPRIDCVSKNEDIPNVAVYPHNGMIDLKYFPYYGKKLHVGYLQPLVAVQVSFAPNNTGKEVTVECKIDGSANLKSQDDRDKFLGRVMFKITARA

This test addresses ATP1B3 (UniProt P54709). The experiment in a line: melting temperature shift (DMSO Tm minus MBE1-treated Tm) in cellular thermal proteome profiling; higher = less thermal stabilization by MBE1 (negative = stabilized by MBE1). Particulars: A375.

The structures appear in SMILES notation. This is one part of the list. This is a noisy data set.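 Many melting curves are irregular; where none melted, Tm was taken as 64 °C.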

`CCc1cnccc1C(=O)Nc1cc2c(cc1F)NC(=O)CC2`: the melting temperature shift is, setting by setting: (MBE1 concentration: 100 nM) -1.15 °C; (MBE1 concentration: 1 uM) -0.922 °C.
